Tests used:
Assay in all cases: minimum inhibitory concentration
linezolid = compound: CC(=O)NC[C@H]1CN(c2ccc(N3CCOCC3)c(F)c2)C(=O)O1 [linezolid]
clindamycin = compound: CCC[C@@H]1C[C@@H](C(=O)N[C@@H]([C@H]2O[C@H](SC)[C@H](O)[C@@H](O)[C@H]2O)[C@H](C)Cl)N(C)C1 [clindamycin]
fidaxomicin = compound: CCc1c(Cl)c(O)c(Cl)c(O)c1C(=O)O[C@H]1[C@H](O)[C@H](OC)[C@H](OC/C2=C\C=C\C[C@H](O)/C(C)=C/[C@H](CC)[C@@H](O[C@@H]3OC(C)(C)[C@@H](OC(=O)C(C)C)[C@H](O)[C@@H]3O)/C(C)=C/C(C)=C/C[C@@H]([C@@H](C)O)OC2=O)O[C@@H]1C [fidaxomicin]
tigecycline = compound: CN(C)c1cc(NC(=O)CNC(C)(C)C)c(O)c2c1C[C@H]1C[C@H]3[C@H](N(C)C)C(O)=C(C(N)=O)C(=O)[C@@]3(O)C(O)=C1C2=O [tigecycline]
vancomycin = compound: CN[C@H](CC(C)C)C(=O)N[C@H]1C(=O)N[C@@H](CC(N)=O)C(=O)N[C@H]2C(=O)N[C@H]3C(=O)N[C@H](C(=O)N[C@H](C(=O)O)c4cc(O)cc(O)c4-c4cc3ccc4O)[C@H](O)c3ccc(c(Cl)c3)Oc3cc2cc(c3O[C@@H]2O[C@H](CO)[C@@H](O)[C@H](O)[C@H]2O[C@H]2C[C@](C)(N)[C@H](O)[C@H](C)O2)Oc2ccc(cc2Cl)[C@H]1O [vancomycin]
rifampicin = compound: CO[C@H]1/C=C/O[C@@]2(C)Oc3c(C)c(O)c4c(O)c(c(/C=N/N5CCN(C)CC5)c(O)c4c3C2=O)NC(=O)/C(C)=C\C=C\[C@H](C)[C@H](O)[C@@H](C)[C@@H](O)[C@@H](C)[C@H](OC(C)=O)[C@@H]1C [rifampicin]
imipenem = compound: C[C@@H](O)[C@H]1C(=O)N2C(C(=O)O)=C(SCCNC=N)C[C@H]12 [imipenem]
meropenem = compound: C[C@@H](O)[C@H]1C(=O)N2C(C(=O)O)=C(S[C@@H]3CN[C@H](C(=O)N(C)C)C3)[C@H](C)[C@H]12 [meropenem]
metronidazole = compound: Cc1ncc([N+](=O)[O-])n1CCO [metronidazole]

Row | Test System | minimum inhibitory concentration (linezolid) [mg/L] | minimum inhibitory concentration (clindamycin) [mg/L] | minimum inhibitory concentration (fidaxomicin) [mg/L] | minimum inhibitory concentration (tigecycline) [mg/L] | minimum inhibitory concentration (vancomycin) [mg/L] | minimum inhibitory concentration (rifampicin) [mg/L] | minimum inhibitory concentration (imipenem) [mg/L] | minimum inhibitory concentration (meropenem) [mg/L] | minimum inhibitory concentration (metronidazole) [mg/L]
1 | Clostridioides difficile PCR ribotype 078 isolate #351 (European region: South, country: Spain, isolate source: Animal, ribotype: 078) | 2 | 8 | 0.03 | 0.06 | 0.5 | < 0.001 | 0.5 | 2 | < 0.125
2 | Clostridioides difficile PCR ribotype 078 isolate #352 (European region: South, country: Spain, isolate source: Animal, ribotype: 078) | 2 | 8 | 0.03 | 0.06 | 0.5 | < 0.001 | 1 | 2 | 0.25
3 | Clostridioides difficile PCR ribotype 078 isolate #353 (European region: South, country: Spain, isolate source: Animal, ribotype: 078) | 2 | 8 | 0.015 | 0.06 | 0.5 | < 0.001 | 0.5 | 2 | < 0.125
4 | Clostridioides difficile PCR ribotype 078 isolate #354 (European region: South, country: Spain, isolate source: Animal, ribotype: 078) | 2 | 2 | 0.03 | 0.125 | 0.5 | < 0.001 | 2 | 4 | 0.25
5 | Clostridioides difficile PCR ribotype 078 isolate #355 (European region: South, country: Spain, isolate source: Animal, ribotype: 078) | 2 | 4 | 0.015 | 0.06 | 0.5 | < 0.001 | 2 | 4 | 0.25
6 | Clostridioides difficile PCR ribotype 078 isolate #356 (European region: South, country: Spain, isolate source: Animal, ribotype: 078) | 2 | 2 | 0.015 | 0.125 | 1 | < 0.001 | 1 | 4 | 0.25
7 | Clostridioides difficile PCR ribotype 078 isolate #357 (European region: West, country: Netherlands, isolate source: Animal, ribotype: 078) | 2 | 2 | 0.03 | 0.125 | 0.5 | < 0.001 | 2 | 4 | 0.25
8 | Clostridioides difficile PCR ribotype 078 isolate #358 (European region: West, country: Netherlands, isolate source: Animal, ribotype: 078) | 2 | 2 | 0.03 | 0.125 | 0.5 | < 0.001 | 2 | 4 | 2
9 | Clostridioides difficile PCR ribotype 078 isolate #359 (European region: North, country: Sweden, isolate source: Animal, ribotype: 078) | 4 | 2 | 0.015 | 0.06 | 0.5 | < 0.001 | 4 | 4 | 0.25
10 | Clostridioides difficile PCR ribotype 078 isolate #360 (European region: South, country: Italy, isolate source: Animal, ribotype: 078) | 2 | 8 | 0.015 | 0.06 | 1 | < 0.001 | 2 | 4 | 0.25
11 | Clostridioides difficile PCR ribotype 078 isolate #361 (European region: South, country: Italy, isolate source: Animal, ribotype: 078) | 2 | 8 | 0.03 | 0.06 | 1 | < 0.001 | 2 | 2 | < 0.125
12 | Clostridioides difficile PCR ribotype 078 isolate #362 (European region: South, country: Italy, isolate source: Animal, ribotype: 078) | 2 | 16 | 0.03 | 0.06 | 1 | < 0.001 | 2 | 2 | < 0.125
13 | Clostridioides difficile PCR ribotype 078 isolate #363 (European region: South, country: Italy, isolate source: Animal, ribotype: 078) | 2 | 8 | 0.03 | 0.125 | 1 | < 0.001 | 2 | 4 | < 0.125

Source: the supplement of paper PMC11264405
